Record: PubChem BioAssay AID504791 (Drosophila RNAi Screening Center, 2011)

Assay: 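Genes of the fly required for silencing by miRNA, siRNA or endo-siRNA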 (primary screen)
Cell system: Drosophila S2-derived reporter cells
Knock-down reagent: long dsRNA against Drosophila genes, about 150-250 ng dsRNA per well (siRNA assay); about 80-120 ng (miRNA assay)
Duration: about 5 days (siRNA assay); about 4 days (miRNA assay)
Conditions: copper sulfate induction of reporters: 25 µM (siRNA assay); 200 mM stated (miRNA assay), 1-2 days before reading
Detection: 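Per-well ratio of Renilla over firefly light, expressed relative to that plate's average ratio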
Units: stable assay Renilla, run 1 in luminescence; stable assay firefly, run 1 in luminescence
Rule for the call: 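First-pass picks had plate-scaled ratios over 1.5 for the siRNA assay, over 1.6 for the miRNA assay, or under 0.6; two distinct dsRNAs had to score alike on retest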
In all, the deposit lists about 23,000 reagents; below is a random part of those that have a named target and a result. Over the whole deposit, 199 (0.86%) got an active call. 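Plate-scaled ratios behind the calls are not deposited; printed light signals are raw; many rows marked increased or decreased are still called inactive.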 Unmarked entries are inactive. The numbers tell different reagents against one gene apart. A plus sign joins genes that one reagent is predicted to hit. Not stated in the record: the direction of the score.

{"target": "Galphao (G protein alpha subunit o)", "reagent": 1, "stable assay Renilla, run 1": 7442, "stable assay firefly, run 1": 3.69e5}
{"target": "Rexo5 (RNA exonuclease 5)", "reagent": 1, "stable assay Renilla, run 1": 7623, "stable assay firefly, run 1": 3.37e5}
{"target": "EMC2B (ER membrane protein complex subunit 2B)", "reagent": 1, "stable assay Renilla, run 1": 8548, "stable assay firefly, run 1": 4.81e5}
{"target": "elm (ethanol sensitive with low memory)", "reagent": 1, "stable assay Renilla, run 1": 8611, "stable assay firefly, run 1": 4.39e5}
{"target": "CG18178", "reagent": 1, "stable assay Renilla, run 1": 9414, "stable assay firefly, run 1": 4.01e5}
{"target": "CycT (Cyclin T)", "reagent": 1, "stable assay Renilla, run 1": 3948, "stable assay firefly, run 1": 1.07e5}
{"target": "CycT (Cyclin T)", "reagent": 2, "miRNA reporter change": "reporter ratio raised past the hit cutoff", "stable assay Renilla, run 1": 2523, "stable assay firefly, run 1": 1.70e5}
{"target": "CG42818 + Ca-Ma2d", "reagent": 1, "stable assay Renilla, run 1": 7022, "stable assay firefly, run 1": 3.60e5}
{"target": "l(2)10685 (lethal (2) 10685)", "reagent": 1, "stable assay Renilla, run 1": 95438, "stable assay firefly, run 1": 2.99e5}
{"target": "Grip (Glutamate receptor interacting protein)", "reagent": 1, "stable assay Renilla, run 1": 5315, "stable assay firefly, run 1": 2.67e5}
{"target": "Grip (Glutamate receptor interacting protein)", "reagent": 2, "stable assay Renilla, run 1": 4860, "stable assay firefly, run 1": 2.40e5}
{"target": "CG10616", "reagent": 1, "stable assay Renilla, run 1": 7231, "stable assay firefly, run 1": 3.31e5}
{"target": "CG7276", "reagent": 1, "stable assay Renilla, run 1": 7794, "stable assay firefly, run 1": 3.50e5}
{"target": "CG14273", "reagent": 1, "stable assay Renilla, run 1": 6555, "stable assay firefly, run 1": 3.03e5}
{"target": "twz (tiwaz)", "reagent": 1, "stable assay Renilla, run 1": 8110, "stable assay firefly, run 1": 4.76e5}
{"target": "CG33290", "reagent": 1, "stable assay Renilla, run 1": 6586, "stable assay firefly, run 1": 3.84e5}
{"target": "CG30192", "reagent": 1, "stable assay Renilla, run 1": 5191, "stable assay firefly, run 1": 3.48e5}
{"target": "CG5323", "reagent": 1, "stable assay Renilla, run 1": 5722, "stable assay firefly, run 1": 3.13e5}
{"target": "Pp1-Y2 (Protein phosphatase 1, Y-linked 2)", "reagent": 1, "stable assay Renilla, run 1": 7743, "stable assay firefly, run 1": 3.98e5}
{"target": "stw (straw)", "reagent": 1, "stable assay Renilla, run 1": 5739, "stable assay firefly, run 1": 3.52e5}
{"target": "stw (straw)", "reagent": 2, "stable assay Renilla, run 1": 5955, "stable assay firefly, run 1": 3.39e5}
{"target": "stw (straw)", "reagent": 3, "stable assay Renilla, run 1": 5104, "stable assay firefly, run 1": 6.49e5}
{"target": "CG31195", "reagent": 1, "stable assay Renilla, run 1": 4688, "stable assay firefly, run 1": 4.34e5}
{"target": "CG31688 + CG31687", "reagent": 1, "stable assay Renilla, run 1": 5779, "stable assay firefly, run 1": 3.05e5}
{"target": "BubR1 (Bub1-related kinase)", "reagent": 1, "stable assay Renilla, run 1": 6454, "stable assay firefly, run 1": 3.52e5}
{"target": "CG12590", "reagent": 1, "stable assay Renilla, run 1": 6880, "stable assay firefly, run 1": 3.97e5}
{"target": "Pfdn5 (Prefoldin 5)", "reagent": 1, "stable assay Renilla, run 1": 8575, "stable assay firefly, run 1": 4.32e5}
{"target": "CG2961", "reagent": 1, "stable assay Renilla, run 1": 5655, "stable assay firefly, run 1": 4.01e5}

Targets above whose gene name begins with S or s:
{"target": "stw (straw)", "reagent": 1, "stable assay Renilla, run 1": 5739, "stable assay firefly, run 1": 3.52e5}
{"target": "stw (straw)", "reagent": 2, "stable assay Renilla, run 1": 5955, "stable assay firefly, run 1": 3.39e5}
{"target": "stw (straw)", "reagent": 3, "stable assay Renilla, run 1": 5104, "stable assay firefly, run 1": 6.49e5}
